In article PMC3753650:
For at least one entry, the source does not settle the construct or the ends of the probe. For some of these results: Weaker means in comparison with the reference protein, sequence or condition of that experiment. For some of these results: At least one verdict was read from the data and is not stated in words by the source.

Experiments:
[1] = system: RNA polymerase sigma70 holoenzyme, molecular beacon derivative (Ec Esigma70 beacon) (Escherichia coli); assay: RNAP beacon fluorescence; conditions: Equilibrium RNAP molecular beacon fluorescence, 25 C and 1 nM RNAP in competition assays, Kd error 20% (>0.4 nM), ~50% (0.2-0.4 nM)
[2] = system: RNA polymerase sigma70 holoenzyme, molecular beacon derivative (Ec Esigma70 beacon) (Escherichia coli); assay: competition with a labelled probe; conditions: 25 C, Equilibrium RNAP molecular beacon fluorescence, 25 C and 1 nM RNAP in competition assays, Kd error 20% (>0.4 nM), ~50% (0.2-0.4 nM)
[3] = range over variants, letters put together from the description

## TATTTGACATCAGGAAAATTTTTCTGTA / ACAGAAAAATTTTCCTGATGTCAAATA [probe 2]
[1]; tighter than probe 3
  binding result: binds

## TATTTGACATCAGGAAAATTTTTCTGTAGTTT / ACAGAAAAATTTTCCTGATGTCAAATA [probe 10]
[1]
  binding result: binds

## TATTTGACATCAGGAAAATTTTTCTGTAG / ACAGAAAAATTTTCCTGATGTCAAATA [probe 3(-10G)]
[1]; [3]
  binding result: binds more weakly

## TATTTGACATCAGGAAAATTTTTCTGTTGTTT / ACAGAAAAATTTTCCTGATGTCAAATA [probe 11]
[1]
  binding result: binds

## TATTTGACATCAGGAAAATTTTTCTGTAA / ACAGAAAAATTTTCCTGATGTCAAATA [probe 3(-10A)]
[1]; [3]
  binding result: binds more weakly

## TGGTTGACTTTTGCCAGATACTGAGGCTGGCTATG / GCCTCAGTATCTGGCAAAAGTCAACCA [probe 14]
[1]; considerably tighter than probe 12
  binding result: binds

## TATTTGACATCAGGAAAATTTTTTGGT (double strand) [probe 15]
[1]
  binding result: binds

## TATTTGCTTTCAGGAAAATTTTTCTGTATAAT / CAGAAAAATTTTCCTGAAAGCAAATA [probe 8]
[2]; [-58/-14] competitor
  binding result: binds

## GCTAAAATTTTTTTTAAAAGTATTTGACATCAGGAAAATTTTTTG (double strand) [[-58/-14]]
[2]; displaces probe 8 from RNAP beacon
  binding result: binds

## GGAAAATTTTTTGGTATAATAGA / ACCAAAAAATTTTCC [probe 9]
[1]
  binding result: binds

## TATTTGACATCAGGAAAATTTTTTGGTA / ACCAAAAAATTTTCCTGATGTCAAATA [probe 16]
[1]; tighter than probe 15
  binding result: binds

## TATTTGACATCAGGAAAATTTTTCTGTATAAT / ACAGAAAAATTTTCCTGATGTCAAATA [probe 6]
[1]; too tight for direct Kd
  binding result: binds

## TATTTGACATCAGGAAAATTTTTTGGTATAA / ACCAAAAAATTTTCCTGATGTCAAATA [probe 17]
[1]; tighter than probe 15
  binding result: binds

## TATTTGACATCAGGAAAATTTTTTGGAA / TCCAAAAAATTTTCCTGATGTCAAATA [probe 16(-12A)]
[1]; about equal to 15(-12A)
  binding result: binds more weakly

## TATTTGACATCAGGAAAATTTTTCTGTAT / ACAGAAAAATTTTCCTGATGTCAAATA [probe 3]
[1]; weaker than probe 2
  binding result: binds more weakly

## TATTTGACATCAGGAAAATTTTTCTGTAT (double strand) [probe 20]
[1]; -10 T/A bp inhibits binding relative to probe 19
  binding result: binds more weakly
